Reference: article doi:10.1101/581785
No constants are given. Whether binding was seen depends on the method and setting. Binding seen in cells or lysates may run through a third protein. Some entries that bind do so weakly or less than the wild type. For some assays here: Where a sequence is shown, tags or fusion partners need not be part of it.

Experiments:
[1] = target: ZAP-S, endogenous in HEK293T cells (human (endogenous in HEK293T)), Q7Z2W4; assay: co-IP; details: remark: other sources report otherwise
[2] = target: KHNYN-1-FLAG (human), O15037; assay: co-IP; details: remark: other sources report otherwise

Binder	binding [1]	binding [2]
KHNYN-1-FLAG, O15037 1-678 (protein) MPTWGARPASPDRFAVSAEAENKVREQQPHVERIFSVGVSVLPKDCPDNPHIWLQLEGPKENASRAKEYLKGLCSPELQDEIHYPPKLHCIFLGAQGFFLDCLAWSTSAHLVPRAPGSLMISGLTEAFVMAQSRVEELAERLSWDFTPGPSSGASQCTGVLRDFSALLQSPGDAHREALLQLPLAVQEELLSLVQEASSGQGPGALASWEGRSSALLGAQCQGVRAPPSDGRESLDTGSMGPGDCRGARGDTYAVEKEGGKQGGPREMDWGWKELPGEEAWEREVALRPQSVGGGARESAPLKGKALGKEEIALGGGGFCVHREPPGAHGSCHRAAQSRGASLLQRLHNGNASPPRVPSPPPAPEPPWHCGDRGDCGDRGDVGDRGDKQQGMARGRGPQWKRGARGGNLVTGTQRFKEALQDPFTLCLANVPGQPDLRHIVIDGSNVAMVHGLQHYFSSRGIAIAVQYFWDRGHRDITVFVPQWRFSKDAKVRESHFLQKLYSLSLLSLTPSRVMDGKRISSYDDRFMVKLAEETDGIIVSNDQFRDLAEESEKWMAIIRERLLPFTFVGNLFMVPDDPLGRNGPTLDEFLKKPARTQGSSKAQHPSRGFAEHGKQQQGREEEKGSGGIRKTRETERLRRQLLEVFWGQDHKVDFILQREPYCRDINQLSEALLSLNF	binds	
ZAP-S, endogenous in HEK293T cells, Q7Z2W4-2 1-699 (protein) MADPEVCCFITKILCAHGGRMALDALLQEIALSEPQLCEVLQVAGPDRFVVLETGGEAGITRSVVATTRARVCRRKYCQRPCDNLHLCKLNLLGRCNYSQSERNLCKYSHEVLSEENFKVLKNHELSGLNKEELAVLLLQSDPFFMPEICKSYKGEGRQQICNQQPPCSRLHICDHFTRGNCRFPNCLRSHNLMDRKVLAIMREHGLNPDVVQNIQDICNSKHMQKNPPGPRAPSSHRRNMAYRARSKSRDRFFQGSQEFLASASASAERSCTPSPDQISHRASLEDAPVDDLTRKFTYLGSQDRARPPSGSSKATDLGGTSQAGTSQRFLENGSQEDLLHGNPGSTYLASNSTSAPNWKSLTSWTNDQGARRKTVFSPTLPAARSSLGSLQTPEAVTTRKGTGLLSSDYRIINGKSGTQDIQPGPLFNNNADGVATDITSTRSLNYKSTSSGHREISSPRIQDAGPASRDVQATGRIADDADPRVALVNDSLSDVTSTTSSRVDDHDSEEICLDHLCKGCPLNGSCSKVHFHLPYRWQMLIGKTWTDFEHMETIEKGYCNPGIHLCSVGSYTINFRVMSCDSFPIRRLSTPSSVTKPANSVFTTKWIWYWKNESGTWIQYGEEKDKRKNSNVDSSYLESLYQSCPRGVVPFQAGSRNYELSFQGMIQTNIASKTQKDVIRRPTFVPQWYVQQMKRGPE		binds
